Reference: PMC7283360

Assays:
[1] = target: HUαα (HU alpha homodimer) (Escherichia coli) (UniProt P0ACF0); assay: SAXS; conditions: DNA bundling, dependent on pH and salt; Crystals by hanging drop at 20 °C: HUαα in 10 mM Bis-Tris pH 4.5/150 mM NaCl or pH 5.5/100 mM NaCl; E34K in 10 mM Bis-Tris pH 6.5/50 mM NaCl; recombinant protein; protein details: N-terminal His6 (pET15b, TEV site), removed by TEV
[2] = target: HUαE34KαE34K (Escherichia coli) (UniProt P0ACF0); assay: SAXS; conditions: filament structures, no alternative coupling; Crystals by hanging drop at 20 °C: HUαα in 10 mM Bis-Tris pH 4.5/150 mM NaCl or pH 5.5/100 mM NaCl; E34K in 10 mM Bis-Tris pH 6.5/50 mM NaCl; recombinant protein; protein details: N-terminal His6 (pET15b, TEV site), removed by TEV

Does “AATGAGGTAACAACGAAAGCAGATGATAGCTGCTTATCAATTTGTTGCAAACAAGTAGCCGCGCCCAATGAGGTAACAAT (double strand) [80 bp DNA]” bind [1]?
Result: binds

Does “AATGAGGTAACAACGAAAGCAGATGATAGCTGCTTATCAATTTGTTGCAAACAAGTAGCCGCGCCCAATGAGGTAACAAT (double strand) [80 bp DNA]” bind [2]?
Result: binds

The exact form of at least one protein or probe is not confirmed. For some assays here: At least one verdict was read from the data and is not stated in words by the source.
